Results taken from patent publication US20260209301A1, “Galanin-2 Receptor Agonists” (LIFEARC, priority 2022, published 2026).
pEC50: −log10 of the molar value. At least one peptide structure holds a part that was inferred or is arguable (an end, a ring closure or a residue).

Target: T1, GALR3 (Homo sapiens, UniProt O60755)
T1 construct: expressed in transfected cells; host or cells: genetically modified HEK293 Gqi cells, transient
T1 sequence (O60755 1-368): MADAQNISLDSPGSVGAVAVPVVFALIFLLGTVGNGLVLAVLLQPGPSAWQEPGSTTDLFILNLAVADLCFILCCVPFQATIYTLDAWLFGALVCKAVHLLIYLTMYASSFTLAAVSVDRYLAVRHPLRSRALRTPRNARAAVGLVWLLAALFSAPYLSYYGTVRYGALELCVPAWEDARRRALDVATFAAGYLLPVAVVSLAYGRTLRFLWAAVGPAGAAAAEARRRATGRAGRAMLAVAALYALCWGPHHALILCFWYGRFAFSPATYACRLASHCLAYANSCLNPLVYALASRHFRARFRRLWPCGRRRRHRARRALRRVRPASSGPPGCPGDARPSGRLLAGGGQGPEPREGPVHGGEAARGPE
Experiment: Luciferase reporter gene assay (SRE), HEK293 Gqi cells
Type: cell-based
Details: Table 5, quantity not named, n ≥ 3

CSCC[C@H](NC(=O)[C@H](C)NC(=O)[C@H](CCC(N)=O)NC(=O)[C@@H]1CCCN1C(=O)[C@@H](NC(=O)[C@H](Cc1c[nH]c2ccccc12)NC(=O)[C@@H](N)CC(N)=O)[C@@H](C)O)C(=O)N[C@@H](CC(C)C)C(=O)N[C@@H](Cc1ccc(O)cc1)C(=O)N[C@@H](CC(C)C)C(=O)N[C@@H](CCCCN)C(=O)NCC(=O)N[C@@H](C)C(=O)N[C@@H](CCC(N)=O)C(N)=O [Spexin, reference compound] was tested. Which pEC50 did it give?
Its pEC50 is 8.04.
